± gives the standard deviation of the averaged measurements. The list shows a part of the results.
Experiments:
Experiment in all cases: NP40-soluble protein abundance relative to vehicle (solubility fold change) (ratio); higher = more soluble protein in presence of GTP
[1] = molecular target: T1, E7EQU1 and related entries (UniProt O15347)
T1 sequence (whole entry): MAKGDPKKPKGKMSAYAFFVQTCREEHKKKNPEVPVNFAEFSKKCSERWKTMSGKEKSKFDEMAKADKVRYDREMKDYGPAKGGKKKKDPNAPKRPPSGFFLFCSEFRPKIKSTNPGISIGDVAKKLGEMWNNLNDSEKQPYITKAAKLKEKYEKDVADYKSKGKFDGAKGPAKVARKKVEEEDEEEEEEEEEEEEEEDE
Outline: (§1)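 Eight concentrations, 0.1 to 10 mM, were tested on Jurkat crude lysate for 10 min at room temperature and then 3 min at 37 °C, in three independent experiments. The lysate was solubilised with 0.8% NP40 and benzonase, ultracentrifuged, and the supernatant TMT-labelled for LC-MS/MS. Each value is the fold change against the detergent-processed vehicle in its own replicate, from vsn-normalised intensities.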

[2] = molecular target: T2, E7ET89 and related entries (UniProt Q86UW9)
T2 sequence (whole entry): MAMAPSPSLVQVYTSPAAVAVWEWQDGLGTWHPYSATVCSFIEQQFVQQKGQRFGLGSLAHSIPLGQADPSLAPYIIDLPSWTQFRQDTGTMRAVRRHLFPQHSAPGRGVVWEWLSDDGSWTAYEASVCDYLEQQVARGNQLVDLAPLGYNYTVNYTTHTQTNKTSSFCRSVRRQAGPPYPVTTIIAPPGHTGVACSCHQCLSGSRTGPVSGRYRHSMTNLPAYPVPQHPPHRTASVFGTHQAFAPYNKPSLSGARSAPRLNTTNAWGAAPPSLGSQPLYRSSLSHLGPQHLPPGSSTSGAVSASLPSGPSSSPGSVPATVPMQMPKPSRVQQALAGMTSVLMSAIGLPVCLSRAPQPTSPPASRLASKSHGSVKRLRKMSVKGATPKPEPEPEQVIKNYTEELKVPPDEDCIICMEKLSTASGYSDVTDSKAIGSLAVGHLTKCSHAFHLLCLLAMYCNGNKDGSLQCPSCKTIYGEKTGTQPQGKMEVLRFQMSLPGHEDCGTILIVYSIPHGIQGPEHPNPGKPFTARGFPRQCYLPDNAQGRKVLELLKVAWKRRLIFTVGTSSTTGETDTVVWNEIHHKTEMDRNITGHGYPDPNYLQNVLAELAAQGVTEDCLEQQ
Outline: as §1

[3] = molecular target: T3, E9PF18 and related entries (UniProt Q16836)
T3 sequence (whole entry): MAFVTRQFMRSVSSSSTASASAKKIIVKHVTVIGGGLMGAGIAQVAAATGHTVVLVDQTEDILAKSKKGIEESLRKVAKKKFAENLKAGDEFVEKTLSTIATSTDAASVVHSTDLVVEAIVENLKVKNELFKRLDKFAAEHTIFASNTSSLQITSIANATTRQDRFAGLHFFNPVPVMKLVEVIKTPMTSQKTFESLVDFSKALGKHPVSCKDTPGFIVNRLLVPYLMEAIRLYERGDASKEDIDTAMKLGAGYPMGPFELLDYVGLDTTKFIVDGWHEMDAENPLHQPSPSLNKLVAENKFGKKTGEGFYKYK
Outline: as §1

[4] = molecular target: T4, E9PKP0 and related entries (UniProt Q8TDP1)
T4 sequence (whole entry): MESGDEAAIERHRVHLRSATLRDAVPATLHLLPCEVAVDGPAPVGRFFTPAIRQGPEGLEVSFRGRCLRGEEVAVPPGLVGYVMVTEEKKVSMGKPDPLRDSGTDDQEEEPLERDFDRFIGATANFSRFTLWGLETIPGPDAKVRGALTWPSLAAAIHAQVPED
Outline: as §1

Nc1nc2c(ncn2[C@@H]2O[C@H](COP(=O)(O)OP(=O)(O)OP(=O)(O)O)[C@@H](O)[C@H]2O)c(=O)[nH]1 [guanosine triphosphate]
NP40-soluble protein abundance ([1]; concentration: 0.1mM): 0.849 ± 0.046
NP40-soluble protein abundance ([1]; concentration: 0.5mM): 0.867 ± 0.045
NP40-soluble protein abundance ([1]; concentration: 1mM): 1.06 ± 0.064
NP40-soluble protein abundance ([1]; concentration: 2mM): 1.06 ± 0.089
NP40-soluble protein abundance ([1]; concentration: 4mM): 1.02 ± 0.052
NP40-soluble protein abundance ([1]; concentration: 6mM): 1.11 ± 0.11
NP40-soluble protein abundance ([1]; concentration: 8mM): 1.04 ± 0.12
NP40-soluble protein abundance ([1]; concentration: 10mM): 1.29 ± 0.16
NP40-soluble protein abundance ([2]; concentration: 0.1mM): 1.07 ± 0.043
NP40-soluble protein abundance ([2]; concentration: 0.5mM): 1.02 ± 0.024
NP40-soluble protein abundance ([2]; concentration: 1mM): 1.06 ± 0.04
NP40-soluble protein abundance ([2]; concentration: 2mM): 1.08 ± 0.0058
NP40-soluble protein abundance ([2]; concentration: 4mM): 1.1 ± 0.048
NP40-soluble protein abundance ([2]; concentration: 6mM): 1.04 ± 0.12
NP40-soluble protein abundance ([2]; concentration: 8mM): 1.03 ± 0.078
NP40-soluble protein abundance ([2]; concentration: 10mM): 1.05 ± 0.024
NP40-soluble protein abundance ([3]; concentration: 0.1mM): 0.929 ± 0.034
NP40-soluble protein abundance ([3]; concentration: 0.5mM): 0.966 ± 0.021
NP40-soluble protein abundance ([3]; concentration: 1mM): 0.905 ± 0.045
NP40-soluble protein abundance ([3]; concentration: 2mM): 0.882 ± 0.058
NP40-soluble protein abundance ([3]; concentration: 4mM): 0.828 ± 0.067
NP40-soluble protein abundance ([3]; concentration: 6mM): 0.889 ± 0.067
NP40-soluble protein abundance ([3]; concentration: 8mM): 0.848 ± 0.057
NP40-soluble protein abundance ([3]; concentration: 10mM): 0.835 ± 0.056
NP40-soluble protein abundance ([4]; concentration: 0.1mM): 0.969 ± 0.098
NP40-soluble protein abundance ([4]; concentration: 0.5mM): 0.924 ± 0.069
NP40-soluble protein abundance ([4]; concentration: 1mM): 0.938 ± 0.11
NP40-soluble protein abundance ([4]; concentration: 2mM): 0.916 ± 0.052
NP40-soluble protein abundance ([4]; concentration: 4mM): 0.923 ± 0.071
NP40-soluble protein abundance ([4]; concentration: 6mM): 0.894 ± 0.072
